Reference: patent US10450346B2, “Immunotherapy against several tumors of the blood, in particular chronic lymphoid leukemia (CLL)” (Immatics biotechnologies GmbH, priority 2014, dated 2019)

Tested on: primary CLL samples (PBMC from CLL patients), HLA class I ligands
Experiment: HLA class I ligandome analysis by LC-MS/MS (frequency of HLA restricted presentation)
Parameters: species or system human
Conditions: for Number of positive CLLs: CLL patient HLA class I ligandomes (n = 30); for Number of positive CLLs (frequency [%]): source protein (LiTAA) representation in CLL patient HLA class I ligandomes (n = 30)

Row | Substance | Number of positive CLLs | Number of positive CLLs (frequency [%]) [%] | HLA restricted presentation/representation on primary CLL (CLL versus HV PBMC ligandomes)
1 | 214 (TPRTNNIEL; listed as Homo sapiens) [compound 214] | 2 | – | –
2 | 101 (VVGPAAEAK; listed as Homo sapiens) [compound 101] | 2 | – | –
3 | 155 (KDVLIPGKL; listed as Homo sapiens) [compound 155] | 1 | – | –
4 | 81 (RVGEVGQSK; listed as Homo sapiens) [compound 81] | 2 | – | –
5 | 167 (LLDEGAKLLY; listed as Homo sapiens) [compound 167] | 2 | – | –
6 | ribosomal L24 domain containing 1 [RSL24D1] | 6 | 20.0 | –
7 | 79 (FYTVIPHNF; listed as Homo sapiens) [compound 79] | 3 | – | –
8 | 108 (TKNDLVVSL; listed as Homo sapiens) [compound 108] | 1 | – | –
9 | 86 (APFQGDQRSL; listed as Homo sapiens) [compound 86] | 2 | – | –
10 | 14 (GRFKNLREAL; listed as Homo sapiens) [compound 14] | 1 | – | –
11 | asunder spermatogenesis regulator | 6 | 20.0 | –
12 | 179 (VFTLKPLEF; listed as Homo sapiens) [compound 179] | 3 | – | –
13 | 11 (FGLARAKSV; listed as Homo sapiens) [compound 11] | 6 | – | –
14 | BTB and CNC homology 1, basic leucine zipper transcription factor 2 [BACH2] | 8 | 26.7 | –
15 | 161 (EDPDQDILI; listed as Homo sapiens) [compound 161] | 1 | – | –
16 | 72 (KVWYNVENW; listed as Homo sapiens) [compound 72] | 1 | – | –
17 | 82 (AVFDGAQVTSK; listed as Homo sapiens) [compound 82] | 7 | – | –
18 | 37 (RQAPPHIEL; listed as Homo sapiens) [compound 37] | 2 | – | –
19 | 66 (NEMELAHSSF; listed as Homo sapiens) [compound 66] | 2 | – | –
20 | cadherin, EGF LAG seven-pass G-type receptor 1 [CELSR1] | 11 | 36.7 | –
21 | 223 (RDLQMNQALRF; listed as Homo sapiens) [compound 223] | 1 | – | –
22 | 123 (GYLPVQTVL; listed as Homo sapiens) [compound 123] | 1 | – | –

Row | Substance | Number of positive CLLs | Number of positive CLLs (frequency [%]) [%] | HLA restricted presentation/representation on primary CLL (CLL versus HV PBMC ligandomes)
23 | 168 (SPADAHRNL; listed as Homo sapiens) [compound 168] | 1 | – | –
24 | 158 (IQAPLSWEL; listed as Homo sapiens) [compound 158] | 1 | – | –
25 | 95 (VYTPVDSLVF; listed as Homo sapiens) [compound 95] | 1 | – | –
26 | 133 (SEIKTSIEV; listed as Homo sapiens) [compound 133] | 1 | – | –
27 | tumor necrosis factor receptor superfamily, member 13C [TNFRSF13C] | 6 | 20.0 | –
28 | 73 (LPAYRAQLL; listed as Homo sapiens) [compound 73] | 1 | – | –
29 | 99 (SEAPEAPLL; listed as Homo sapiens) [compound 99] | 1 | – | –
30 | 20 (KFAEEFYSF; listed as Homo sapiens) [compound 20] | 2 | – | –
31 | 71 (HLKSIPVSL; listed as Homo sapiens) [compound 71] | 2 | – | –
32 | 69 (TVKENLSLF; listed as Homo sapiens) [compound 69] | 1 | – | –
33 | 124 (GQKEALLKY; listed as Homo sapiens) [compound 124] | 1 | – | –
34 | 80 (HHINTDNPSL; listed as Homo sapiens) [compound 80] | 2 | – | –
35 | 17 (SPFSKATL; listed as Homo sapiens) [compound 17] | 2 | – | –
36 | 19 (GEDVRSALL; listed as Homo sapiens) [compound 19] | 3 | – | –
37 | Tu translation elongation factor, mitochondrial [TUFM] | 6 | 20.0 | –
38 | 147 (VPASQKLRQL; listed as Homo sapiens) [compound 147] | 2 | – | –
39 | 77 (SSSGLHPPK; listed as Homo sapiens) [compound 77] | 2 | – | –
40 | 187 (AADTERLAL; listed as Homo sapiens) [compound 187] | 1 | – | –
41 | 217 (GPIYPGHGM; listed as Homo sapiens) [compound 217] | 1 | – | –
42 | 35 (LVDDPLEY; listed as Homo sapiens) [compound 35] | 1 | – | –
43 | 220 (RIHTGEKPYK; listed as Homo sapiens) [compound 220] | 1 | – | –
44 | 135 (YPNKGVGQA; listed as Homo sapiens) [compound 135] | 1 | – | –

Row | Substance | Number of positive CLLs | Number of positive CLLs (frequency [%]) [%] | HLA restricted presentation/representation on primary CLL (CLL versus HV PBMC ligandomes)
45 | 193 (AIRSGEAAAK; listed as Homo sapiens) [compound 193] | 2 | – | –
46 | 186 (TVADQVLVGSY; listed as Homo sapiens) [compound 186] | 2 | – | –
47 | 201 (RQYGSEGRFTF; listed as Homo sapiens) [compound 201] | 1 | – | –
48 | 9 (NRLSAQAAL; listed as Homo sapiens) [compound 9] | 1 | – | –
49 | 132 (KYIETTPLTI; listed as Homo sapiens) [compound 132] | 1 | – | –
50 | 200 (DETMVIGNY; listed as Homo sapiens) [compound 200] | 1 | – | –
51 | zinc finger protein 638 [ZNF638] | 7 | 23.3 | –
52 | 106 (REDNSSNSL; listed as Homo sapiens) [compound 106] | 1 | – | –
53 | 114 (YGNPRTNGM; listed as Homo sapiens) [compound 114] | 2 | – | –
54 | 189 (HVLEEVQQV; listed as Homo sapiens) [compound 189] | 2 | – | –
55 | 120 (RDFGPASQHFL; listed as Homo sapiens) [compound 120] | 1 | – | –
56 | 54 (DIKEHPLL; listed as Homo sapiens) [compound 54] | 1 | – | –
57 | 2 (FLAEHPNVTL; listed as Homo sapiens) [compound 2] | 8 | – | –
58 | 117 (QLFSYAILGF; listed as Homo sapiens) [compound 117] | 1 | – | –
59 | ATPase, H+ transporting, lysosomal 42 kDa, V1 subunit C1 [ATP6V1C1] | 6 | 20.0 | –
60 | 1 (AEHPNVTLTI; listed as Homo sapiens) [compound 1] | 1 | – | –
61 | eukaryotic translation initiation factor 6 [EIF6] | 6 | 20.0 | –
62 | 100 (SPRASGSGL; listed as Homo sapiens) [compound 100] | 6 | – | –
63 | 97 (DEVHQDTY; listed as Homo sapiens) [compound 97] | 1 | – | –
64 | 162 (HGNLRELAL; listed as Homo sapiens) [compound 162] | 3 | – | –
65 | 15 (MSPFSKATL; listed as Homo sapiens) [compound 15] | 2 | – | –
66 | 67 (REFPEANFEL; listed as Homo sapiens) [compound 67] | 1 | – | –

Row | Substance | Number of positive CLLs | Number of positive CLLs (frequency [%]) [%] | HLA restricted presentation/representation on primary CLL (CLL versus HV PBMC ligandomes)
67 | 218 (GDYGRAFNL; listed as Homo sapiens) [compound 218] | 2 | – | –
68 | RINEFSISSF (listed as Homo sapiens) [SEQ ID NO: 526] | – | – | CLL-exclusive representation
69 | 207 (KEEETNSVATL; listed as Homo sapiens) [compound 207] | 1 | – | –
70 | 3 (ILYGRSYTW; listed as Homo sapiens) [compound 3] | 1 | – | –
71 | B-cell linker [BLNK] | 7 | 23.3 | –
72 | 221 (KAFNWFSTL; listed as Homo sapiens) [compound 221] | 1 | – | –
73 | 7 (ISDTGELKL; listed as Homo sapiens) [compound 7] | 1 | – | –
74 | 194 (APNPAPKEL; listed as Homo sapiens) [compound 194] | 4 | – | –
75 | 211 (TEITEISTPSL; listed as Homo sapiens) [compound 211] | 1 | – | –
76 | 28 (AELRSTASLL; listed as Homo sapiens) [compound 28] | 1 | – | –
77 | 190 (KEAADTERL; listed as Homo sapiens) [compound 190] | 1 | – | –
78 | 154 (EIFQNEVAR; listed as Homo sapiens) [compound 154] | 1 | – | –
79 | 203 (GPRPITQSEL; listed as Homo sapiens) [compound 203] | 6 | – | –
80 | 156 (VPLVREITF; listed as Homo sapiens) [compound 156] | 2 | – | –
81 | 160 (VLRPGGAFY; listed as Homo sapiens) [compound 160] | 2 | – | –
82 | 178 (HEIDRYTAI; listed as Homo sapiens) [compound 178] | 1 | – | –
83 | 62 (EEIDTTMRW; listed as Homo sapiens) [compound 62] | 1 | – | –
84 | 183 (ADVLKVEVF; listed as Homo sapiens) [compound 183] | 2 | – | –
85 | 42 (KLYELHVFTF; listed as Homo sapiens) [compound 42] | 1 | – | –
